Laboratory results as given in publication doi:10.1101/2022.01.14.476386 (bioRxiv, 2022).
These are yes or no findings as the source states them, for the method shown. Some results given as binding are weak or reduced against the parent protein; the word gives no strength.

The chains behind the UniProt entries cited, without tags or fusion partners. Where a name states a change or a piece, a line headed by the entry shows the natural chain unless it says otherwise. A line that says so, or that is headed by a name, gives the form on record, which may keep a tag or linker.
UniProt P06730: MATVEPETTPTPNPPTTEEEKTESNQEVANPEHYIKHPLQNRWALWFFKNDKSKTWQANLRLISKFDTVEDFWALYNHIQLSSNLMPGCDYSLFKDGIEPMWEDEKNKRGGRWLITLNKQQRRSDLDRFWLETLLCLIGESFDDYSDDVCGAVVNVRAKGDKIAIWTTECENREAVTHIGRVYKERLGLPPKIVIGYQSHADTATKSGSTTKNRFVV
4E-BP2 C0 (C0ins/C35S/C73S), non-phosphorylated, labelled with Atto488 at position 0 (Q13542, form named): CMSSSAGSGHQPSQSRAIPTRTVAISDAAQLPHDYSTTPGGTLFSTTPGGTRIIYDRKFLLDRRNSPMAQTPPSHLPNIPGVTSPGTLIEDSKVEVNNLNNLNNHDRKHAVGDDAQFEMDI

What was measured:
[1] = target: eukaryotic initiation factor 4E (eIF4E) (UniProt P06730); assay: fluorescence correlation spectroscopy
[2] = target: eukaryotic initiation factor 4E (eIF4E) (UniProt P06730); assay: fluorescence anisotropy decay

binding [1]: binds
binding [2]: binds
Substance: 4E-BP2 C0 (C0ins/C35S/C73S), non-phosphorylated, labelled with Atto488 at position 0 (from UniProt Q13542 1-120)
